Results on three molecules are retold here after paper PMC12211996.

Amino acid sequences for entries named in this document (tags omitted).
UniProt P28322: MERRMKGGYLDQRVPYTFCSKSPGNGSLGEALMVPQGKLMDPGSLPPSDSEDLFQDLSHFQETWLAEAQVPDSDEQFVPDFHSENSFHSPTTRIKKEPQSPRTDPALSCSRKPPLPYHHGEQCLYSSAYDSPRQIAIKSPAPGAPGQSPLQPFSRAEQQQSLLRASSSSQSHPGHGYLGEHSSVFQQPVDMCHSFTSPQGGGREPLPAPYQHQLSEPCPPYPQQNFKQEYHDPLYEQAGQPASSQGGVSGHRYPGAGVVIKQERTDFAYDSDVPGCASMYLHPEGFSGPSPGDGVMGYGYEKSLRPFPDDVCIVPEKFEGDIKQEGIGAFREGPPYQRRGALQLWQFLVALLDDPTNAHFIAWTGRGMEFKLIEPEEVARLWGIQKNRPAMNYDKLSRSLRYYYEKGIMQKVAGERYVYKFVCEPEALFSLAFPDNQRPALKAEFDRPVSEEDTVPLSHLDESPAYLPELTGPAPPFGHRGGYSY
UniProt P28033: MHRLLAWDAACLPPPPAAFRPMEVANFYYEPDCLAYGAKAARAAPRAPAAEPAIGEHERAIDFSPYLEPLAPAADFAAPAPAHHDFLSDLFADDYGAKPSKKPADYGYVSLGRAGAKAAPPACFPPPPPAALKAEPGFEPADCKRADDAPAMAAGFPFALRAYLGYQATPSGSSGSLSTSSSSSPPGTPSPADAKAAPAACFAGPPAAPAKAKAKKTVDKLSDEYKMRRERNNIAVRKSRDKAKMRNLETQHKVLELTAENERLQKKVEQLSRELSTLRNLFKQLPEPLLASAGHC
UniProt P37238: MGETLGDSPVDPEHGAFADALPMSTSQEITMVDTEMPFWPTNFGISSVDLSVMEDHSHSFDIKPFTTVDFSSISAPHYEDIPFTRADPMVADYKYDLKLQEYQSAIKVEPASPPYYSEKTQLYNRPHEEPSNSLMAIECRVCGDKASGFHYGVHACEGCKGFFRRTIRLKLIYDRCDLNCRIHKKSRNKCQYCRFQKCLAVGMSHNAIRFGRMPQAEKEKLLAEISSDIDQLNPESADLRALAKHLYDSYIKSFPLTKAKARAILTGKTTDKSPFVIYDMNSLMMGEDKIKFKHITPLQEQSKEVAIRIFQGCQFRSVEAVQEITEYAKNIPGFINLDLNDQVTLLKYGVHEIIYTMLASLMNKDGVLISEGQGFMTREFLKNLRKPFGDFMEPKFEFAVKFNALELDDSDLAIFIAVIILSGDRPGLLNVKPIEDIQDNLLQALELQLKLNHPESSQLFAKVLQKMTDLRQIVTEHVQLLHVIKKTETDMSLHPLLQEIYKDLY

B1: Ebf2 (protein, UniProt O08792 1-575)
chain: MFGIQDTLGRGPALKDKSLGAEMDSVRSWVRNVGVVDANVAAQSGVALSRAHFEKQPPSNLRKSNFFHFVLALYDRQGQPVEIERTAFVDFVENDKEQGNEKTNNGTHYKLQLLYSNGVRTEQDLYVRLIDSVTKQPIAYEGQNKNPEMCRVLLTHEVMCSRCCEKKSCGNRNETPSDPVIIDRFFLKFFLKCNQNCLKTAGNPRDMRRFQVVLSTTVNVDGHVLAVSDNMFVHNNSKHGRRARRLDPSEATPCIKAISPSEGWTTGGAMVIIIGDNFFDGLQVVFGTMLVWSELITPHAIRVQTPPRHIPGVVEVTLSYKSKQFCKGAPGRFIYTALNEPTIDYGFQRLQKVIPRHPGDPERLAKEMLLKRAADLVEALYGTPHNNQDIILKRAADIAEALYSVPRNPSQIPALSSSPAHSGMMGINSYGSQLGVSISESTQGNNQGYIRNTSSISPRGYSSSSTPQQSNYSTSSNSMNGYSNVPMANLGVPGSPGFLNGSPTGSPYGIMSSSPTVGSSSTSSILPFSSSVFPAVKQKSAFAPVIRPQGSPSPACSSGNGNGFRAMTGLVVPPM

Results are given in words; binding and its absence hold for the method and conditions named. In cells and extracts the contact can be indirect. Some entries that bind do so weakly or less than the wild type.

The assay addresses HA-tagged Etv4 (UniProt P28322). As to the kind of experiment: co-IP; lysate of mouse brown adipose tissue two weeks after injection of AAV HA-Etv4; cell lysis buffer with proteinase inhibitor; IgG or HA antibody for 2 h, protein A/G beads, washed three times with PBS; immunoblot for the indicated proteins.
Regarding Cebpβ (from UniProt P28033 1-296), the binding result is listed as “no binding”.

PPARγ (from UniProt P37238 1-505): the binding entry is on record as “binds”.

B1: the binding result was “binds”.
